Assay results published in US20090312245.
Construct, isoform or probe ends are uncertain for at least one entry. For part of these data: No signal at the amounts used counts as a negative. For part of these data: Protein sequences can lack the tags named with them. For part of these data: The comparison behind a weaker result is the experiment's own reference, which may not be listed here. For part of these data: Results from cells or extracts need not show a direct contact.

What was measured:
GST = GST (UniProt P08515); experiment: EMSA; details: purified recombinant protein; protein details: GST alone (pGEX-6P2); label: 32P-UTP
SHARP RRM region = molecular target: T1, SHARP RRM region (UniProt Q96T58); experiment: EMSA; details: bound avidly under stringent conditions; purified recombinant protein; protein details: GST fusion; label: 32P-UTP
T1 sequence (looked up): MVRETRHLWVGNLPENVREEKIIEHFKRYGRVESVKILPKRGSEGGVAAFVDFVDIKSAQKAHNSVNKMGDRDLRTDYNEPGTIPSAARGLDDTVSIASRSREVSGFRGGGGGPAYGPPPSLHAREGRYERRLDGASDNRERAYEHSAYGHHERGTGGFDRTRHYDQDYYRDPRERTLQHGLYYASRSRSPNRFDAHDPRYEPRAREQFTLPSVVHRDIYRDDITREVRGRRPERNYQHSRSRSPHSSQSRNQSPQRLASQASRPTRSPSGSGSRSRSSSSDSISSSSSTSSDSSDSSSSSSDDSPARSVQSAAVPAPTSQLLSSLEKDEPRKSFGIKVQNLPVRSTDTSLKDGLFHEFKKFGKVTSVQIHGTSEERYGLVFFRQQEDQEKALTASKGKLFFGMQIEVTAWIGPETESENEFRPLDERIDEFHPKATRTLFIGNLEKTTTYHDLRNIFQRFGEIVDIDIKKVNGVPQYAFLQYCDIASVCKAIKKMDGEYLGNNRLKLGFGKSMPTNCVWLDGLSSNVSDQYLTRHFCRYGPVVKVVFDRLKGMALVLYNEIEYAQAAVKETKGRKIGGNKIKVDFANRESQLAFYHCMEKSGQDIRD

SHARP repression domain = molecular target: T2, SHARP repression domain (UniProt Q96T58); experiment: EMSA; details: purified recombinant protein; protein details: GST fusion; label: 32P-UTP
T2 sequence (looked up): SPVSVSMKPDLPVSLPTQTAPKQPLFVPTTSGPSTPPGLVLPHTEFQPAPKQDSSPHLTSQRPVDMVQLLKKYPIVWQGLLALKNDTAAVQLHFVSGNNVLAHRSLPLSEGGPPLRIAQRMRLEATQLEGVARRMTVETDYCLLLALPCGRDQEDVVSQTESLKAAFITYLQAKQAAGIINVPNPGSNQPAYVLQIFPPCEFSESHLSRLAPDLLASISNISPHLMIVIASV

[1] = molecular target: SLIRP (GST cleaved) (Homo sapiens) (UniProt Q9GZT3); experiment: EMSA; details: heparin and RNase T1; data not shown; purified recombinant protein; protein details: GST removed with PreScission protease; label: 32P-UTP
SLIRP (Homo sapiens) = SLIRP (Homo sapiens) (UniProt Q9GZT3); experiment: EMSA; details: purified recombinant protein; protein details: GST fusion (pGEX-6P2); label: 32P-UTP
[2] = molecular target: SLIRP L62A (Homo sapiens) (UniProt Q9GZT3); experiment: EMSA; details: markedly reduced binding; purified recombinant protein; protein details: GST fusion; label: 32P-UTP
[3] = molecular target: SLIRP R24,25A R24A,R25A (Homo sapiens) (UniProt Q9GZT3); experiment: EMSA; details: markedly reduced binding; purified recombinant protein; protein details: GST fusion; label: 32P-UTP
[4] = molecular target: SLIRP double mutant R24A,R25A,L62A (Homo sapiens) (UniProt Q9GZT3); experiment: EMSA; details: markedly reduced binding; purified recombinant protein; protein details: GST fusion; label: 32P-UTP
[5] = molecular target: SLIRP (yeast three-hybrid clone) (Homo sapiens) (UniProt Q9GZT3); experiment: binding assay; details: yeast three-hybrid screen; STR7 in MS2 hybrid RNA bait; protein in cells; protein details: cDNA library fusion, lacks first methionine; label: 32P-UTP

“AGGAGGCAGGUAUGUGAUGACAUCAGCCGACGCCUGGCACUGCUGCAGGAACAGUGGGCUGGAGGAAAGUUGUCAAUACCUGUAAAGAA [SRA STR7]”: no binding (GST); binds (SHARP RRM region); no binding (SHARP repression domain). “AGGAGGCAGGUAUGUGAUGACAUCAGCCGACGCCUGGCACUGCUGCAGGAACAGUGGGCUGGAGGAAAGUUGUCAAUACCUGUAAAGAA [SRA STR7]”: binds [1]; binds (SLIRP (Homo sapiens)); binds more weakly [2]. “AGGAGGCAGGUAUGUGAUGACAUCAGCCGACGCCUGGCACUGCUGCAGGAACAGUGGGCUGGAGGAAAGUUGUCAAUACCUGUAAAGAA [SRA STR7]”: binds more weakly [3]; binds more weakly [4]; binds [5].
